A short description of this series: Targeted MS quantification of novel conjugated bile acids in SPF mouse gut samples. It counts as in vivo. The following applies: endogenous level; for Mean concentration in cecum / Mean concentration in colon / Mean concentration in ileum / Mean concentration in jejunum: SPF mice (n = 4).

Take `C[C@H](CCC(=O)N[C@@H](Cc1ccccc1)C(=O)O)[C@H]1CC[C@H]2[C@@H]3[C@H](O)C[C@@H]4C[C@H](O)CC[C@]4(C)[C@H]3C[C@H](O)[C@]12C` [Phe-chol, phenylalanocholic acid]: the “Mean concentration in cecum” value is on record as 4.7 nmol/g tissue, the “Mean concentration in colon” value was determined as 11.6 nmol/g tissue, the “Mean concentration in ileum” value is 83.6 nmol/g tissue and the “Mean concentration in jejunum” value turned out to be 147.0 nmol/g tissue. Under “listed as Phe”, the “Mean concentration in cecum” value was 4.74 nmol/g tissue, the “Mean concentration in colon” value came to 11.61 nmol/g tissue, the “Mean concentration in ileum” value was 83.56 nmol/g tissue and the “Mean concentration in jejunum” value was 147 nmol/g tissue. Besides, the “highest concentration in a single jejunum sample” value (SPF mice) was determined as 447.2 nmol/g tissue.
On to `C[C@H](CCC(=O)N[C@@H](Cc1ccc(O)cc1)C(=O)O)[C@H]1CC[C@H]2[C@@H]3[C@H](O)C[C@@H]4C[C@H](O)CC[C@]4(C)[C@H]3C[C@H](O)[C@]12C` [Tyr-chol, tyrosocholic acid], for which the “Mean concentration in cecum” value was “<LOD”, the “Mean concentration in colon” value was “<LOD”, the “Mean concentration in ileum” value was 56.03 nmol/g tissue and the “Mean concentration in jejunum” value came out at 114.09 nmol/g tissue.
